Data published in publication PMC8403768.
These are yes or no findings as the source states them, for the method shown. In cells and extracts the contact can be indirect. Some entries that bind do so weakly or less than the wild type.

The chains behind the UniProt entries cited, without tags or fusion partners. Where a name states a change or a piece, a line headed by the entry shows the natural chain unless it says otherwise.
UniProt P35637: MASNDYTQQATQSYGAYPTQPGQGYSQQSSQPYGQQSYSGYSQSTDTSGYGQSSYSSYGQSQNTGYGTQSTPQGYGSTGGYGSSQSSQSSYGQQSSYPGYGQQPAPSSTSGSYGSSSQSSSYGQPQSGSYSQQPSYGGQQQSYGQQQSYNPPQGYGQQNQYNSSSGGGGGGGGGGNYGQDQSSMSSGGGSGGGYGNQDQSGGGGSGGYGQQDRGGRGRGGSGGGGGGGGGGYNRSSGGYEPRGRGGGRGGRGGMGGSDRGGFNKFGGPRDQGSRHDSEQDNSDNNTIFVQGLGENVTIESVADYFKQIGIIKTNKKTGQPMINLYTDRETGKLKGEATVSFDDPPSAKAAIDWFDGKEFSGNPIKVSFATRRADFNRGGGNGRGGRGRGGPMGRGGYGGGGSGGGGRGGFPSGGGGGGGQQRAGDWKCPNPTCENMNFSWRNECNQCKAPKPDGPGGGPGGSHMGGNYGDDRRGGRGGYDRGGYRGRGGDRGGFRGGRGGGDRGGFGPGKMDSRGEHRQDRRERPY
UniProt P28340: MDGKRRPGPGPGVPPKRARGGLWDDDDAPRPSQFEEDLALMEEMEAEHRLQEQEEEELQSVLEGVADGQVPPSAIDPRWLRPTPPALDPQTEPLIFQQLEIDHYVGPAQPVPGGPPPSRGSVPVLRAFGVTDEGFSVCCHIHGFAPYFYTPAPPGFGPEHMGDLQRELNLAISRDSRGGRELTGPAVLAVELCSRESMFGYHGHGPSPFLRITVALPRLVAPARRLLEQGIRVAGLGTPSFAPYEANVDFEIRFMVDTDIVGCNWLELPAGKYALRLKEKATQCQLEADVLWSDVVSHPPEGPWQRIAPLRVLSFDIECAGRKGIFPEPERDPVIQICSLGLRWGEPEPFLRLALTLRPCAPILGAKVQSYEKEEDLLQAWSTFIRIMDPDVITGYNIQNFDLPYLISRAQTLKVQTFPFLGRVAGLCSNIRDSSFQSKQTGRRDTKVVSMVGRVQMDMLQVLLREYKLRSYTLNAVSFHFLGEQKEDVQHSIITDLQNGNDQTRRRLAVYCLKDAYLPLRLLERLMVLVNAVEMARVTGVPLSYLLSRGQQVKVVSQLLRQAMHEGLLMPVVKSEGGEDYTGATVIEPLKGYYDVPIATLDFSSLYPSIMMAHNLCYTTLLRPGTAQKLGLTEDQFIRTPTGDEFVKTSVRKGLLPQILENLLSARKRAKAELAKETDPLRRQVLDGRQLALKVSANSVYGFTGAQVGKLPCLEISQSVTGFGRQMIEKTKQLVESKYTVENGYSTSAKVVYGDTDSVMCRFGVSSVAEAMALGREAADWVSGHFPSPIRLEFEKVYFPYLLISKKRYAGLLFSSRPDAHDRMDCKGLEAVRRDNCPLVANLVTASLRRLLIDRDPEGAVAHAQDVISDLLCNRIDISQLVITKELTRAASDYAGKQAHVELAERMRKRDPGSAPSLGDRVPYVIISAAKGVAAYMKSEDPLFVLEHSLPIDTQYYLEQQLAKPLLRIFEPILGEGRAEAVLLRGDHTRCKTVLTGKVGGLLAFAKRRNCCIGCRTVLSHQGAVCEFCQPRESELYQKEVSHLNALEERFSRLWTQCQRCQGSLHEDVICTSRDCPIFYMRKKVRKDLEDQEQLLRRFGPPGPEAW
UniProt P11387: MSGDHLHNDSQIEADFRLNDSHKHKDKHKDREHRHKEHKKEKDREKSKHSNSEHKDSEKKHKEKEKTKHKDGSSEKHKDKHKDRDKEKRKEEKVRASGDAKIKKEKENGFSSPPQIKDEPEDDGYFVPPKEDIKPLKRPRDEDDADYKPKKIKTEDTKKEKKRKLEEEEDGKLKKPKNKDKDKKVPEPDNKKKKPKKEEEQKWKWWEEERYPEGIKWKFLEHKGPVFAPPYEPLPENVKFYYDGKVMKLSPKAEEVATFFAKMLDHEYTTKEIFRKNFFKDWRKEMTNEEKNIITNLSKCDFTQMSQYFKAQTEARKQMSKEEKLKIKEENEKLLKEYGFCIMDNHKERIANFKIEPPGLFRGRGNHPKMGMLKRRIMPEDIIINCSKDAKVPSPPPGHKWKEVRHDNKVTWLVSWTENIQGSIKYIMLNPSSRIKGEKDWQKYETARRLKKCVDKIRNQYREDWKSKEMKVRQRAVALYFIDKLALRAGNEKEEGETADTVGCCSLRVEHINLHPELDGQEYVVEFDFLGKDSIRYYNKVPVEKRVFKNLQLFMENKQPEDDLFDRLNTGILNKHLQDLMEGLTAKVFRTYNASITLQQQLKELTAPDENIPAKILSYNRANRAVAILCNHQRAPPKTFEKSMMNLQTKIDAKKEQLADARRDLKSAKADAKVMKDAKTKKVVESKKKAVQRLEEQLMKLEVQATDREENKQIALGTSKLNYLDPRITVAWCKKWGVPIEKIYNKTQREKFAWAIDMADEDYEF
UniProt P12004: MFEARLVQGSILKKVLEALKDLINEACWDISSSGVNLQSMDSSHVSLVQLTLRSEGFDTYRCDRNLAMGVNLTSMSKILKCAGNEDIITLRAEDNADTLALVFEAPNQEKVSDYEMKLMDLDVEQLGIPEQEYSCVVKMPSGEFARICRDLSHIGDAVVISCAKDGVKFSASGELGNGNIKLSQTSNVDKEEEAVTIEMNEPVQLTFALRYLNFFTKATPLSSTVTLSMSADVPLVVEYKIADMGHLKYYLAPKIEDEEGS

What was measured:
[1] = target: Fused in sarcoma (FUS) (human (endogenous in U-2 OS)) (UniProt P35637); test: co-IP; same crosslinking chromatin IP of endogenous FUS with anti-FUS antibody, beads washed with LB3 and RIPA buffer, Western blot; unsynchronized cells or synchronized S-phase cells
[2] = target: Fused in sarcoma (FUS) (human (endogenous in U-2 OS)) (UniProt P35637); test: proximity ligation; in situ proximity ligation assay in cells, nuclear PLA foci counted with CellProfiler
[3] = target: Fused in sarcoma (FUS) (human (endogenous in U-2 OS)) (UniProt P35637); test: co-IP; same crosslinking chromatin IP of endogenous FUS with anti-FUS antibody, beads washed with LB3 and RIPA buffer, Western blot; unsynchronized cells or synchronized S-phase cells; remark: listed apart in the source

With “DNA polymerase δ (POLδ or POLD1) (from UniProt P28340 1-1107)” the binding [1] was “binds” and the binding [2] was “binds”.

TOP1 (from UniProt P11387 1-765) was tested, and the binding [1] was “binds”.

With “proliferating cell nuclear antigen (PCNA) (from UniProt P12004 1-261)” the binding [1] was “binds” and the binding [2] was “binds”.

B1: UHRF1 (protein, UniProt Q96T88 1-793)
chain: MWIQVRTMDGRQTHTVDSLSRLTKVEELRRKIQELFHVEPGLQRLFYRGKQMEDGHTLFDYEVRLNDTIQLLVRQSLVLPHSTKERDSELSDTDSGCCLGQSESDKSSTHGEAAAETDSRPADEDMWDETELGLYKVNEYVDARDTNMGAWFEAQVVRVTRKAPSRDEPCSSTSRPALEEDVIYHVKYDDYPENGVVQMNSRDVRARARTIIKWQDLEVGQVVMLNYNPDNPKERGFWYDAEISRKRETRTARELYANVVLGDDSLNDCRIIFVDEVFKIERPGEGSPMVDNPMRRKSGPSCKHCKDDVNRLCRVCACHLCGGRQDPDKQLMCDECDMAFHIYCLDPPLSSVPSEDEWYCPECRNDASEVVLAGERLRESKKKAKMASATSSSQRDWGKGMACVGRTKECTIVPSNHYGPIPGIPVGTMWRFRVQVSESGVHRPHVAGIHGRSNDGAYSLVLAGGYEDDVDHGNFFTYTGSGGRDLSGNKRTAEQSCDQKLTNTNRALALNCFAPINDQEGAEAKDWRSGKPVRVVRNVKGGKNSKYAPAEGNRYDGIYKVVKYWPEKGKSGFLVWRYLLRRDDDEPGPWTKEGKDRIKKLGLTMQYPEGYLEALANREREKENSKREEEEQQEGGFASPRTGKGKWKRKSAGGGPSRAGSPRRTSKKTKVEPYSLTAQQSSLIREDKSNAKLWNEVLASLKDRPASGSPFQLFLSKVEETFQCICCQELVFRPITTVCQHNVCKDCLDRSFRAQVFSCPACRYDLGRSYAMQVNQPLQTVLNQLFPGYGNGR
B1 was tested, and the binding [3] was “binds”.
